# According to US10682310B2, “Therapeutic compounds and formulations for intranasal delivery” (priority 2015, dated 2020):
# Some of these results come from one statement about several compounds together. At least one structure is not confirmed: it was looked up by name or label, or the drawing left a doubt.
# Test system: A.O. protease (Aspergillus Oryzae)
# Experiment: Enzyme kinetics of prodrug conversion by A.O. protease (HPLC, integrated Michaelis-Menten fit)
# Format: biochemical
# Settings: 480 μM prodrug, A.O. protease 2-8 U/mL, assay buffer pH 7.4, 32° C.
# Method: Enzyme Kinetics. To determine the enzyme kinetic parameters KM and Vmax for a prodrug/enzyme system, various concentrations of prodrug were incubated in assay buffer, pH 7.4 containing A.O. protease, at 32° C., for a fixed time period t, at which point the reaction was stopped using methanol as an enzyme denaturant. […] The reactions were carried out to times when there was already substantial conversion. Concentrations of product, Cd(t) were fit against initial prodrug concentrations, Cp (0), using the integrated Michaelis-Menten equation: Cd(t)+KM ln[1−Cd(t)/Cp(0)]=Vmaxt (1) Fitting was carried out using the Matlab nlinfit function (Mathworks).
# AVFm and AVFp (each at 480 μM) were incubated with A.O. protease (2-8 U/mL) in assay buffer over various time intervals in assay buffer pH 7.4 at 32° C.
# The Michaelis Menten parameters for AVFp reactions were determined by carrying out reactions for t=5 min in solutions containing A.O. protease.
# The extent of reaction was determined after t=12 min with MDZ-pro incubated, at different concentrations, in assay buffer with 4 U/ml A.O. protease.
compound,measurement,value
CN(C(=O)CNC(=O)[C@@H](N)CCCCN)c1ccc(Cl)cc1C(=O)c1ccccc1 [AVFm],time at which conversion process was essentially complete,≤ 5 min
